The values that follow come from paper PMC11347159, “MUT-7 exoribonuclease activity and localization are mediated by an ancient domain” (Nucleic Acids Research, 2023).

Amino acid sequences for entries named in this document (tags omitted). A change or cut given only in a name is not applied to a line headed by its entry.
UniProt P34607: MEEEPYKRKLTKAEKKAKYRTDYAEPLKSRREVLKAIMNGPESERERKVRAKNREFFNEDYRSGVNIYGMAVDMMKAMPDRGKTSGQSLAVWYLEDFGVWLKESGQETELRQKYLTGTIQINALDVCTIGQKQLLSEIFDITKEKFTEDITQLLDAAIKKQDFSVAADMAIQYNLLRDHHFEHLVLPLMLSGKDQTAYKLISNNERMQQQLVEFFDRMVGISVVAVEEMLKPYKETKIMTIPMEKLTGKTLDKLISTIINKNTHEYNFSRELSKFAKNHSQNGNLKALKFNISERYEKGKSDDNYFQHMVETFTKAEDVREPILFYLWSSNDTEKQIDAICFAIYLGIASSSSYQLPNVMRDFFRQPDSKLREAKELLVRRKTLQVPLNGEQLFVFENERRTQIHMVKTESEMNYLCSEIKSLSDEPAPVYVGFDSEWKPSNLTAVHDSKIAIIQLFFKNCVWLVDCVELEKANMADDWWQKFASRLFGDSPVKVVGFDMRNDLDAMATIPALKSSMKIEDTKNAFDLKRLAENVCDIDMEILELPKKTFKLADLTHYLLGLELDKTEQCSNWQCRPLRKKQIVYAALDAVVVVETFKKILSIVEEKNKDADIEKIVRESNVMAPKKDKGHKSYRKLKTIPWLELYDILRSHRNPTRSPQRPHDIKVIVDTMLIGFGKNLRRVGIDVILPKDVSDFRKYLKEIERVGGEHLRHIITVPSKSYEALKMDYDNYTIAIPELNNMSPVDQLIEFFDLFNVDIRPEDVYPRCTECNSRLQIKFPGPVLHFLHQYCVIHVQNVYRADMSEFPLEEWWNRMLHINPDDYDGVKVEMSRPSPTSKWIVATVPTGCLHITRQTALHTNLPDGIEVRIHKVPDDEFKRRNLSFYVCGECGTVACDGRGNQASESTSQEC

These are yes or no findings as the source states them, for the method shown. In cells and extracts the contact can be indirect. A result given as binding can be weak or reduced; the word gives no strength.

The experiment concerns the target catalytically inactive MUT-7^FL(D453A) (Caenorhabditis elegans) (UniProt P34607). Kind of experiment: co-purification; MUT-7 mutant and MUT-8^CTD purified together as a complex from E. coli (steps in Supplementary Table S1).

B1: MUT-8^CTD (322–578) (domain or fragment, UniProt Q19672 322-578)
chain: DEDEIDDEDTYGTRGTSNIPMRPFIKDLAPTMLQLLRQDKTDSEKPQSALCTVVQKIDGFAILYTAKRDVINVLLQERSCEGLERSPQLGDVAFFDILPRRIETKDRLIFKIPYTHIAVKKKPDTPDSLLKIDCFKNSVRCFGGVLEMKVKIALSKPELVVEQYHDNTEMNSDHHFYYLKATNGVLVTIPKERLLNHLNSKLSADFDLIAWVVHRKPIGNVSLHIGKGGEAYQQFTNGDIRELPPLSSNQYFMNVRK
In the case of B1, the binding entry is listed as “binds”.
